Data source: PubChem BioAssay AID1259424 (University of Nebraska Medical Center, 2018)
The whole screen tested about 14,000 reagents; shown is an unselected part. 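Higher correlation or smaller distance means closer resemblance to KSR1 loss; control wells, including KSR1 knockdowns, recur on many plates.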 No sequences are given here. The record does not give: the time to read-out.

- Aim: 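Find knockdowns that reproduce the expression shifts seen after KSR1 loss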 (primary screen)
- System: human HCT116 colon cancer cells
- Reagents: siRNA pool against human genes, 50 nM
- Read-out: 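Log2 levels of six mRNAs (branched-DNA multiplex), adjusted by two reference genes and the non-targeting median, then scored against the average KSR1 knockdown pattern as Pearson r and euclidean distance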
- Direction: mean correlation with KSR1 profile and KSR1 correlation: higher = expression change more like KSR1 knockdown; mean distance from KSR1 profile: higher = expression change less like KSR1 knockdown

no.	gene	mean correlation with KSR1 profile	mean distance from KSR1 profile	KSR1 correlation, replicate 1	KSR1 correlation, replicate 2	KSR1 correlation, replicate 3
1	NELFA (negative elongation factor complex member A)	-0.883	2.16	-0.893	-0.834	-0.751
2	PBXIP1 (PBX homeobox interacting protein 1)	-0.622	2.92	-0.547	-0.32	-0.633
3	BCL2L12 (BCL2 like 12)	0.435	2.39	0.358	0.251	0.428
4	ARMC5 (armadillo repeat containing 5)	-0.168	2.89	-0.111	-0.0409	-0.302
5	IPPK (inositol-pentakisphosphate 2-kinase)	-0.164	3.28	0.00394	-0.407	-0.386
6	FAM3B (FAM3 metabolism regulating signaling molecule B)	-0.391	1.49	-0.681	-0.0583	-0.315
7	PPCDC (phosphopantothenoylcysteine decarboxylase)	-0.557	2.65	-0.607	-0.503	-0.384
8	SMG5 (SMG5 nonsense mediated mRNA decay factor)	-0.372	2.29	-0.106	-0.341	-0.424
9	TUBB (tubulin beta class I)	0.636	1.49	0.304	0.42	0.68
10	HMG20B (high mobility group 20B)	0.472	1.59	0.391	-0.0587	0.688
11	SEC16A (SEC16 homolog A, endoplasmic reticulum export factor)	-0.00518	1.85	0.0653	-0.175	0.114
12	GAST (gastrin)	-0.572	1.38	-0.749	-0.561	-0.402
13	KRT16 (keratin 16)	0.0304	1.79	0.0291	-0.126	-0.0315
14	COQ8B (coenzyme Q8B)	0.568	1.79	0.659	0.368	0.319
15	ADSL (adenylosuccinate lyase)	0.174	5.47	0.26	-0.443	0.11
16	DMXL1 (Dmx like 1)	0.819	1.18	0.811	0.86	0.82
17	TXLNG (taxilin gamma)	-0.462	1.89	-0.606	-0.592	-0.327
18	IQCC (IQ motif containing C)	0.168	1.86	0.179	-0.0431	0.123
19	ANTKMT (adenine nucleotide translocase lysine methyltransferase)	-0.467	4.4	0.592	0.376	-0.406
20	CRHR1 (corticotropin releasing hormone receptor 1)	0.841	1.12	0.927	0.761	0.836
21	RNF4 (ring finger protein 4)	-0.4	1.73	-0.641	-0.466	-0.0137
22	NETO1 (neuropilin and tolloid like 1)	-0.275	2.97	-0.538	-0.149	-0.301
23	TMEM69 (transmembrane protein 69)	-0.107	2.19	-0.0605	-0.098	0.0278
24	CLDN10 (claudin 10)	-0.116	2.84	0.121	-0.149	-0.397
25	CTSZ (cathepsin Z)	-0.0726	2.49	-0.464	0.0343	0.443

Part of the list above, reduced to “mean distance from KSR1 profile”.
BCL2L12 (BCL2 like 12)	2.39
ARMC5 (armadillo repeat containing 5)	2.89
IPPK (inositol-pentakisphosphate 2-kinase)	3.28
FAM3B (FAM3 metabolism regulating signaling molecule B)	1.49
PPCDC (phosphopantothenoylcysteine decarboxylase)	2.65
SMG5 (SMG5 nonsense mediated mRNA decay factor)	2.29

More results:
no.	gene	mean correlation with KSR1 profile	mean distance from KSR1 profile	KSR1 correlation, replicate 1	KSR1 correlation, replicate 2	KSR1 correlation, replicate 3
26	MPHOSPH8 (M-phase phosphoprotein 8)	0.368	1.73	0.472	0.00302	0.671
27	STX11 (syntaxin 11)	-0.0122	1.5	0.195	0.0564	-0.282
28	PPP2R2A (protein phosphatase 2 regulatory subunit Balpha)	-0.425	2.54	-0.26	-0.605	-0.466
29	GRIN2C (glutamate ionotropic receptor NMDA type subunit 2C)	-0.0766	1.33	-0.496	-0.329	-0.0411
30	ABHD8 (abhydrolase domain containing 8)	-0.488	2.11	-0.392	0.0889	-0.00812
31	CFTR (CF transmembrane conductance regulator)	0.271	1.43	0.194	0.241	0.208
32	GRHL3 (grainyhead like transcription factor 3)	-0.435	2.92	-0.0258	-0.687	-0.367
33	RAD1 (RAD1 checkpoint DNA exonuclease)	0.0873	1.96	-0.192	0.153	0.153
34	GMPPA (GDP-mannose pyrophosphorylase A)	0.807	1.98	0.696	0.745	0.629
35	AQP6 (aquaporin 6)	0.0496	1.28	0.164	0.0462	0.209
36	UBL4A (ubiquitin like 4A)	0.444	1.39	0.246	0.382	0.59
37	CORO6 (coronin 6)	0.415	2.23	0.372	0.239	0.224
38	C2CD2L (C2CD2 like)	-0.18	2.54	-0.0993	-0.394	-0.0434
39	SLC9A8	0.467	1.64	0.613	0.381	0.323
40	SLAMF8 (SLAM family member 8)	-0.418	1.68	-0.235	-0.638	-0.678
41	SNX11 (sorting nexin 11)	-0.339	1.31	-0.318	-0.591	-0.141
42	ABCF3 (ATP binding cassette subfamily F member 3)	-0.0562	3.46	-0.18	0.102	-0.00015
43	SEMA6A (semaphorin 6A)	0.425	2.88	0.199	0.0179	0.605
44	KDM6B (lysine demethylase 6B)	0.131	2.55	0.208	-0.00971	0.212
45	RTL8C (retrotransposon Gag like 8C)	-0.35	2.3	-0.22	-0.319	-0.368
46	UNC80 (unc-80 subunit of NALCN channel complex)	0.0438	3.58	0.412	-0.337	-0.162
47	PLAUR (plasminogen activator, urokinase receptor)	-0.384	2.2	-0.373	-0.295	-0.636
48	CXCR3 (C-X-C motif chemokine receptor 3)	-0.203	2.38	0.128	0.104	-0.606
49	MAFK (MAF bZIP transcription factor K)	0.218	1.37	0.647	0.0416	0.105
50	KNDC1 (kinase non-catalytic C-lobe domain containing 1)	-0.0166	2.08	0.0583	-0.125	-0.156
